# In the supplement of paper PMC8616043:
# Structures can show the parent of a compound that is named as a salt. This is one part of the list. Single values are uncertain here, since repeats match poorly.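 PR50, a 50-repeat proline–arginine dipeptide protein from C9ORF72 (ALS/FTD), was expressed by transfection in U-2 OS human cells stably carrying a GFP sensor with import and classical export signals. Per-well nuclear-minus-cytoplasm GFP, normalized between in-plate DMSO (low) and PR-only (high), was scored versus other test wells; compounds well below zero were hits reversing PR.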
# Tested on: U-2 OS NCT-C biosensor cells expressing PR50
# Experiment: Z-score of normalised NCT-C biosensor translocation index in PR50-expressing cells; higher = more nuclear biosensor (more disrupted nuclear export)
# Conditions: 3 µM; 24 h
row,Compound,Z-score
1,NC(=O)Cc1cccc(C(=O)c2ccccc2)c1N [Nepafenac],inactive: -0.359
2,C[C@H]1COC2=C1C(=O)C(=O)c1c2ccc2c1CCCC2(C)C [Cryptotanshinone],inactive: -0.556
3,CC(=O)SCC[N+](C)(C)C [Acetylthiocholine chloride],inactive: 0.0554
4,CCCCC1=NC2(CCCC2)C(=O)N1Cc1ccc(-c2ccccc2-c2nnn[nH]2)cc1 [Irbesartan],inactive: 1.22
5,O=[N+]([O-])c1ccc2c(c1)S(=O)(=O)C=C2 [Stattic],inactive: 1.55
6,Nc1ccc(-c2ccc3ccccc3n2)cc1 [BF-170 hydrochloride],inactive: -0.57
7,CC[C@H]1OC(=O)[C@H](C)[C@@H](O[C@H]2C[C@@](C)(OC)[C@@H](O)[C@H](C)O2)[C@H](C)[C@@H](O[C@@H]2O[C@H](C)C[C@H](N(C)C)[C@H]2O)[C@](C)(OC)C[C@@H](C)C(=O)[C@H](C)[C@@H](O)[C@]1(C)O [Clarithromycin],inactive: 0.629
8,CCCCC[C@H](O)/C=C/[C@H]1C=CC(=O)[C@@H]1CCCCCCC(=O)O [Prostaglandin A1],inactive: -0.153
9,CC(C)NCC(O)c1ccc(NS(C)(=O)=O)cc1 (racemic) [(+-)-Sotalol hydrochloride],inactive: -0.912
10,N=C(N)NC(=O)c1nc(Cl)c(N)nc1N [Amiloride hydrochloride],inactive: -0.169
11,N=C(N)NC(=O)c1nc(Cl)c(N)nc1N [Amiloride·HCl·2H2O],inactive: -1.18
12,CCC(=O)N1CCOc2c(cc(-c3ccc(OC)c(OC)c3)cc2OC[C@H]2CCCN(C)C2)C1,active: -2.33
13,O=C1N/C(=N\S(=O)(=O)c2cccc3ccccc23)S/C1=C\c1ccc(Br)cc1 [Pitstop 2],inactive: 0.584
14,COc1cccc(OC)c1OCCNCC1COc2ccccc2O1 (centres undefined) [WB-4101  hydrochloride],inactive: -1.16
15,O=C1NCN(c2ccccc2)C12CCN(CCCC(c1ccc(F)cc1)c1ccc(F)cc1)CC2 [Fluspirilene],inactive: -0.571
16,CC1(C)CC=C(c2ccccc2)c2cc(/C=C/c3ccc(C(=O)O)cc3)ccc21,inactive: -0.54
17,Nc1ccccc1NC(=O)c1ccc(CNC(=O)OCc2cccnc2)cc1 [Entinostat (MS-275)],inactive: -1.55
18,NC(N)=NCc1cccc(I)c1 [m-Iodobenzyl guanidine hemisulfate],inactive: 0.596
19,COc1cc2c(cc1OC)C(=O)C(CC1CCN(Cc3ccccc3)CC1)C2 (centres undefined) [Donepezil·HCl],inactive: 0.213
20,CC(C)(C)c1ccc(CN2CCN(C(c3ccccc3)c3ccc(Cl)cc3)CC2)cc1 (centres undefined) [Buclizine dihydrochloride],inactive: -0.231
21,N#CC(=C(/N)Sc1ccccc1N)/C(C#N)=C(/N)Sc1ccccc1N,inactive: -0.389
22,NS(=O)(=O)c1cccc2c1c([N+](=O)[O-])cc1nc(O)c(O)nc12 [NBQX disodium],inactive: -0.45

row,Compound,Z-score
1,COc1ccc(S(=O)(=O)Nc2nc(-c3cccc([N+](=O)[O-])c3)cs2)cc1OC,inactive: -0.699
2,CNCC[C@H](Oc1cccc2ccccc12)c1cccs1 [Duloxetine·HCl],inactive: 0.0486
3,NC(=O)C(=O)O [Sodium Oxamate],inactive: -0.018
4,COCC1=C(C(=O)OC(C)OC(=O)OC(C)C)N2C(=O)[C@@H](NC(=O)/C(=N\OC)c3csc(N)n3)[C@H]2SC1 (some centres undefined) [Cefpodoxime Proxetil],inactive: 0.316
5,CN(C)c1cc2c(Nc3ccc4c(cnn4Cc4ccccc4)c3)ncnc2cn1,inactive: -0.655
6,C=C1C[C@@]23CC[C@H]4[C@@](C)(CCC[C@@]4(C)C(=O)O[C@@H]4O[C@H](CO)[C@@H](O)[C@H](O)[C@H]4O)[C@@H]2CC[C@]1(O[C@@H]1O[C@H](CO)[C@@H](O)[C@H](O)[C@H]1O[C@@H]1O[C@H](CO)[C@@H](O)[C@H](O)[C@H]1O)C3 [Stevioside],inactive: 0.298
7,C=C1C(=O)[C@]23[C@H](CC[C@@H]1[C@@H]2O)[C@]12CO[C@@]3(O)[C@H](O)[C@H]1C(C)(C)CC[C@@H]2O [Rubescensin A],inactive: -0.621
8,Cc1ccnc2c1NC(=O)c1cccnc1N2C1CC1 [Nevirapine],inactive: -0.61
9,CN(C)CCC=C1c2ccccc2CCc2ccccc21 [Amitriptyline·HCl],inactive: 0.0329
10,CN(C)CCC=C1c2ccccc2CCc2ccccc21 [Amitriptyline hydrochloride],inactive: 0.207
11,Cc1[nH]c(=O)c(C#N)cc1-c1ccncc1 [Milrinone],inactive: -0.421
12,CS(=O)(=O)c1ccc(C2=C(c3ccccc3)C(=O)OC2)cc1 [Rofecoxib],inactive: 1.17
13,Cn1c(=O)c2[nH]cnc2n(C)c1=O [Aminophylline],inactive: 2.64
14,Cn1c(=O)c2[nH]cnc2n(C)c1=O [Aminophylline ethylenediamine],inactive: 0.0334
15,Cn1c(=O)c2[nH]cnc2n(C)c1=O [Oxtriphylline],inactive: 0.0463
16,C=C[C@H]1CN2CC[C@H]1C[C@@H]2[C@@H](O)c1ccnc2ccc(OC)cc12 [Quinidine·HCl·H2O],inactive: -0.54
17,C=C[C@H]1CN2CC[C@H]1C[C@@H]2[C@@H](O)c1ccnc2ccc(OC)cc12 [Quinidine sulfate],inactive: -0.161
18,CNC(=O)[C@H]1O[C@@H](n2cnc3c(NCc4cccc(I)c4)ncnc32)[C@H](O)[C@@H]1O,inactive: 0.819
19,O=C1CCC(N2C(=O)c3ccccc3C2=O)C(=O)N1 (racemic) [(+/-)-Thalidomide],inactive: -0.0463
20,N=C(N)N [Guanidine·HCl],inactive: 0.311
21,Cc1cccc(C)c1NC(=O)C1CCCCN1C (centres undefined) [Mepivacaine·HCl],inactive: 0.0738
22,COc1cc(/C=C/C(=O)N2CCC=CC2=O)cc(OC)c1OC [Piperlongumine],inactive: 1.04

# Taken from the entries so far for reference:
row,Compound,Z-score
17,Nc1ccccc1NC(=O)c1ccc(CNC(=O)OCc2cccnc2)cc1 [Entinostat (MS-275)],inactive: -1.55
18,NC(N)=NCc1cccc(I)c1 [m-Iodobenzyl guanidine hemisulfate],inactive: 0.596
